# Assay results published in PubChem BioAssay AID504444 (National Center for Advancing Translational Sciences (NCATS), 2011).
# About 7,500 (2.1%) of roughly 360,000 compounds were called active. Inconclusive results, whose numbers are uncertain, are shown with a selection of clear calls. Calls follow the shape of the dose curve; as a rule, active = well fitted inhibition curve with a large enough effect; inconclusive = small, poorly fitted or top-dose-only effect, or effect the other way; inactive = flat fitted curve, though single readings scatter. Potencies beside an inconclusive call are fits to weak or partial responses and may not hold up.
# Experiment: Nrf2 qHTS screen for inhibitors; also: nearly all actives have a fitted effect of over 60% in size
# Conditions: A549 ARE-Fluc reporter, luciferase luminescence, 18-24 h; activity change, negative = inhibition: at 46 µM (top of the series)
# How it was run: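 Reporter: ARE-Fluc in A549. Exposure: 18-24 h, 37 °C, 5% CO2, 5% FBS OPTI-MEM. Readouts: fluorescent cytotoxicity (CellTiter-Fluor), then luminescent Nrf2 signal after BugLite.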
# % is scaled to controls: 0 for no effect and ±100 for the full control effect; potency is read from the fitted curve at half-maximal effect.
SMILES,Potency,"activity change, negative = inhibition"
Clc1ccccc1Cn1c(-c2cccs2)nc2ccccc21,"inconclusive: 23.1 µM [activator, partial curve, poor fit]",
CCOc1ccc(NC(=O)c2sc(-n3nc(C)c(Cc4ccc(Cl)cc4)c3C)nc2C)cc1,"inconclusive: 32.6 µM [activator, partial curve, poor fit]",
CC1CCN(c2c(NCC3CCC(C(=O)N4CCc5ccccc5C4)CC3)c(=O)c2=O)CC1 (stereo not drawn),"inconclusive: 0.164 µM [falling, full curve, poor fit]",
Cc1ccc(Nc2c3c(nc4ccccc24)CCC3)cc1,"inconclusive: 29.1 µM [falling, single point]",
CC(=O)OCC1OC(n2c(-c3ccc(Cl)cc3)ccc(C#N)c2=S)C(OC(C)=O)C(OC(C)=O)C1OC(C)=O (stereo not drawn),"inconclusive: 20.6 µM [activator, partial curve, poor fit]",
COc1ccccc1CCNC(=O)CSc1nc(-c2ccco2)cc(C(F)(F)F)n1,"inconclusive: 1.84 µM [falling, full curve, poor fit]",
Cc1c(NC(=O)/C(C#N)=C/c2ccc(-c3ccccc3Cl)o2)c(=O)n(-c2ccccc2)n1C,"inconclusive: 16.4 µM [falling, single point]",
OCC(O)C1OCOC(C(O)CO)C1O (stereo not drawn),,inactive: -10.3%
CCOc1ccc(C(=O)Nc2ccc(C(=O)N3CCOCC3)cc2)c(OCC)c1,,inactive: -6.36%
Fc1cnc(N2CCOCC2)nc1N1CCOCC1,"inconclusive: 3.26 µM [falling, single point]",
CCOC(=O)N1CCC(NC(=O)Cc2cn(C)c3ccccc23)CC1,"inconclusive: 18.4 µM [activator, partial curve]",
CCOc1c(Cl)cc(CNc2ccc3[nH]c(=O)[nH]c3c2)cc1OC,"inconclusive: 2.59 µM [falling, partial curve, poor fit]",
COCCn1c(-c2ccc(Br)cc2)csc1=Nc1cccnc1,active: 18.4 µM,
CCOC(=O)C1Cc2c([nH]c3ccccc23)CN1 (stereo not drawn),"inconclusive: 13 µM [falling, partial curve, poor fit]",
CCCP(=O)(CC(=O)N(CC)CC)c1ccccc1 (stereo not drawn),,inactive: -6.48%
COc1ccc(NC(=O)NC(C)c2c(-n3cccc3)sc(C)c2C)cc1OC (stereo not drawn),active: 20.6 µM,
c1cc(CSc2nnc(-c3ccc4c(c3)OCO4)o2)ccn1,"inconclusive: 4.61 µM [activator, full curve, poor fit]",
Cc1cc(C)c(C#N)c(Nc2ccccc2Cl)n1,"inconclusive: 2.59 µM [falling, partial curve, poor fit]",
CCn1c(SCC(=O)Nc2cccc(O)c2)nc2c1c(=O)n(C)c(=O)n2C,"inconclusive: 29.1 µM [activator, single point]",
CCN(C)c1ccc(/C=N\n2nnnc2N)cc1,"inconclusive: 14.6 µM [activator, single point]",
N#CCC1c2ccccc2CCN1C(=O)Nc1cccc(C(F)(F)F)c1 (stereo not drawn),"inconclusive: 14.6 µM [falling, partial curve, poor fit]",
Cc1ccc(NC(=O)Cc2cc(C(=O)O)c3ccccc3n2)c(C)c1,active: 5.8 µM,

SMILES,Potency,"activity change, negative = inhibition"
CC1(C)Cc2ccccc2-c2nnc(SCC(=O)Nc3nc4ccccc4s3)n21,"inconclusive: 2.31 µM [falling, partial curve, poor fit]",
COc1cc(-c2noc(C)c2/C=C/c2ccc(N)cc2)cc(OC)c1OC,"inconclusive: 5.8 µM [activator, partial curve]",
COc1nc(C#N)nc(N2CCCC2)n1,"inconclusive: 16.4 µM [falling, partial curve]",
CC(=NNS(=O)(=O)c1ccc([N+](=O)[O-])cc1)c1ccc(C)cc1,"inconclusive: 32.6 µM [falling, single point]",
O=C(O)c1cccc(NCc2cccnc2)c1,"inconclusive: 29.1 µM [activator, single point]",
Cc1cc(Nc2cccc(C(=O)O)c2)n2nc(C)nc2n1,"inconclusive: 5.17 µM [activator, full curve, poor fit]",
COc1ccc(/C=c2\s/c(=C/C(=O)c3ccc(C)cc3)[nH]c2=O)cc1OC,"inconclusive: 25.9 µM [falling, partial curve]",
COc1ccc(CCNC(=O)c2ccc3c(c2)N=C(C)c2ccccc2S3)cc1OC,"inconclusive: 25.9 µM [falling, single point]",
COc1cccc(NC(=O)CSc2nc3ccccc3c(=O)n2C)c1,active: 14.6 µM,
CCn1c(SCC(=O)N2CCC(C)CC2)nc2c(c1=O)SC(C)C2 (stereo not drawn),"inconclusive: 5.8 µM [falling, full curve]",
CCOC(=O)c1c(C)[nH]c(C(=O)CSc2ccccc2)c1C,"inconclusive: 4.11 µM [activator, full curve]",
Cn1cc(SCC(=O)Nc2nccs2)c2ccccc21,"inconclusive: 9.2 µM [activator, partial curve, poor fit]",
CCOc1cc(N2CCOCC2)c(OCC)cc1NC(=O)c1ccc(OC(C)C)cc1,"inconclusive: 8.2 µM [falling, partial curve]",
CCOc1nc(CC(C)C)c2c(c1C#N)CC(C)(C)OC2,,inactive: 12.5%
O=C(CSc1nnnn1-c1ccccc1)Nc1ncc(Cc2ccccc2Cl)s1,,inactive: 3.72%
Cc1oc2c(c1C(=O)NCc1ccccc1F)C1=NCCN1C=N2,"inconclusive: 14.6 µM [activator, partial curve, poor fit]",
Cc1nc(-c2ccc(Cl)cc2)sc1C1(C)CC(c2cccnc2)=NO1 (stereo not drawn),"inconclusive: 7.31 µM [activator, partial curve, poor fit]",
CNc1ncc(C(=O)c2ccc(F)cc2)s1,"inconclusive: 20.6 µM [activator, single point]",
CCc1ccc(/C=C2\SC(=S)N(CCCC(=O)Nc3ccccn3)C2=O)cc1,active: 23.1 µM,
CC(=O)NC(CC(=O)Nc1ccc2c(c1)OCCO2)c1ccccc1 (stereo not drawn),"inconclusive: 29.1 µM [activator, single point]",
CCCc1nc(SCC(=O)N2CCc3ccccc3C2)c2ccccc2n1,active: 23.1 µM,

# By substructure, the compounds so far containing a furan ring, fused or not
SMILES,Potency,"activity change, negative = inhibition"
COc1ccccc1CCNC(=O)CSc1nc(-c2ccco2)cc(C(F)(F)F)n1,"inconclusive: 1.84 µM [falling, full curve, poor fit]",
Cc1c(NC(=O)/C(C#N)=C/c2ccc(-c3ccccc3Cl)o2)c(=O)n(-c2ccccc2)n1C,"inconclusive: 16.4 µM [falling, single point]",
Cc1oc2c(c1C(=O)NCc1ccccc1F)C1=NCCN1C=N2,"inconclusive: 14.6 µM [activator, partial curve, poor fit]",
